At least one compound was matched to its structure with a doubt left.
Test system: Protease enzyme
Experiment: Residual activity of protease enzyme in liquid detergent formulation with added perfume component after storage
Format: biochemical
Conditions: 0.06% by weight perfume component added to 'base' liquid formulation; 2 weeks storage at 37° C.; activity determined at 40° C. in TRIS pH 9 buffer, tetrapeptide substrate; relative to t=0
Description: The following ‘base’ liquid detergent formulation was prepared: […]
The residual activity of the protease enzyme in all thus-formed formulations after 2 weeks storage at 37° C., was determined at 40° C. in a TRIS pH 9 buffer and using tetrapeptide as substrate. For this determination, the following protocol was used: Samples of 70 mg of the tested liquid formulation were diluted in 10.00 ml MilliQ water. 10 μl of this solution was added to an assay of 205 μl containing 74.4 mM TRIS pH9 and 0.494 mM tetrapeptide (succinyl-Ala-Ala-Pro-Phe-p-Nitroanilide). The absorbance of the tested samples at a wavelength of […] was measured for 15 minutes at 40° C., using a spectrophotometer. The absolute changes in absorbance as compared to the absorbance measured on a freshly prepared calibration sample were correlated to the measured activity of such freshly prepared sample. The measured protease enzyme activity is expressed as GU/ml.
The residual enzyme activity (expressed as %) is the enzyme activity after storage of the liquid formulation concerned divided by the enzyme activity measured at t=0.

COc1ccc(C=O)cc1 [Anis aldehyde]
Residual activity after 2 weeks: 75%
